Source: PMC6121541

Experiments:
Experiment in all cases: two-hybrid; GAL4 Matchmaker system, yeast AH109; GAL4AD-LFMADS (pGADT7, prey) with GAL4BD-LFMADS (pGBKT7, bait); 10^6 cells spotted, growth scored on SD/–His–Leu–Trp, control SD/–Leu–Trp
[1] = molecular target: Lilium formosanum MADS-box protein 2 (LFMADS2) (Lilium formosanum) (UniProt I6RAP0)
[2] = molecular target: Lilium formosanum MADS-box protein 4 (LFMADS4) (Lilium formosanum) (UniProt E3VTL2)
[3] = molecular target: Lilium formosanum MADS-box protein 6 (LFMADS6) (Lilium formosanum)
[4] = molecular target: Lilium formosanum MADS-box protein 7 (LFMADS7) (Lilium formosanum)
[5] = molecular target: Lilium formosanum MADS-box protein 1 (LFMADS1) (Lilium formosanum)
[6] = molecular target: Lilium formosanum MADS-box protein 3 (LFMADS3) (Lilium formosanum)

Substance	binding [1]	binding [2]	binding [3]	binding [4]	binding [5]	binding [6]
Lilium formosanum MADS-box protein 2 (LFMADS2) (from UniProt I6RAP0)			no binding		binds	
Lilium formosanum MADS-box protein 6 (LFMADS6) (from UniProt A0A023ZT32)	no binding			no binding	binds weakly	no binding
Lilium formosanum MADS-box protein 7 (LFMADS7) (from UniProt A0A023ZSM5)		binds weakly	no binding		binds weakly	

Now from value to substance:

binding [1]	binding [2]	binding [3]	binding [4]	binding [5]	binding [6]	Substance
binds	binds	binds	binds			Lilium formosanum MADS-box protein 1 (LFMADS1) (from UniProt A0A023ZT28)
		no binding				Lilium formosanum MADS-box protein 3 (LFMADS3) (from UniProt A0A023ZTM0)
			binds	binds		Lilium formosanum MADS-box protein 4 (LFMADS4) (from UniProt E3VTL2)

These are yes or no findings as the source states them, for the method shown. For some of these results: A result given as binding can be weak or reduced; the word gives no strength.
